Reference: paper PMC10635659
No constants are given. Whether binding was seen depends on the method and setting. In cells and extracts the contact can be indirect. Some entries that bind do so weakly or less than the wild type.

Protein sequences, listed by entry. Tags and fused reporters are not part of them.
UniProt Q8WUY9: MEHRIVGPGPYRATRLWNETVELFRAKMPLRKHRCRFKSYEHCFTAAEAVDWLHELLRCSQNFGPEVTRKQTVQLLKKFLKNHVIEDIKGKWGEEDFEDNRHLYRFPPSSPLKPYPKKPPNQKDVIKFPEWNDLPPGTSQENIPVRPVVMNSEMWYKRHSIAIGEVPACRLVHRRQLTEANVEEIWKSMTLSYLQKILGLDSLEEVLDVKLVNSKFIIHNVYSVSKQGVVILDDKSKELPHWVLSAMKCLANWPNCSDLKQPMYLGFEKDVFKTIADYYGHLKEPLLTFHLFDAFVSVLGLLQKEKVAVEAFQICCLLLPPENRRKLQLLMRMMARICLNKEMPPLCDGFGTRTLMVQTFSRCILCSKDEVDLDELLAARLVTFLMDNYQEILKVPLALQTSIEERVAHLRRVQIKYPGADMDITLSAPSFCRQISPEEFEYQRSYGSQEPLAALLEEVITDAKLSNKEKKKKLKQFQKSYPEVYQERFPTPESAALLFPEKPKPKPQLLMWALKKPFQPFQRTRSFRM
UniProt P35222: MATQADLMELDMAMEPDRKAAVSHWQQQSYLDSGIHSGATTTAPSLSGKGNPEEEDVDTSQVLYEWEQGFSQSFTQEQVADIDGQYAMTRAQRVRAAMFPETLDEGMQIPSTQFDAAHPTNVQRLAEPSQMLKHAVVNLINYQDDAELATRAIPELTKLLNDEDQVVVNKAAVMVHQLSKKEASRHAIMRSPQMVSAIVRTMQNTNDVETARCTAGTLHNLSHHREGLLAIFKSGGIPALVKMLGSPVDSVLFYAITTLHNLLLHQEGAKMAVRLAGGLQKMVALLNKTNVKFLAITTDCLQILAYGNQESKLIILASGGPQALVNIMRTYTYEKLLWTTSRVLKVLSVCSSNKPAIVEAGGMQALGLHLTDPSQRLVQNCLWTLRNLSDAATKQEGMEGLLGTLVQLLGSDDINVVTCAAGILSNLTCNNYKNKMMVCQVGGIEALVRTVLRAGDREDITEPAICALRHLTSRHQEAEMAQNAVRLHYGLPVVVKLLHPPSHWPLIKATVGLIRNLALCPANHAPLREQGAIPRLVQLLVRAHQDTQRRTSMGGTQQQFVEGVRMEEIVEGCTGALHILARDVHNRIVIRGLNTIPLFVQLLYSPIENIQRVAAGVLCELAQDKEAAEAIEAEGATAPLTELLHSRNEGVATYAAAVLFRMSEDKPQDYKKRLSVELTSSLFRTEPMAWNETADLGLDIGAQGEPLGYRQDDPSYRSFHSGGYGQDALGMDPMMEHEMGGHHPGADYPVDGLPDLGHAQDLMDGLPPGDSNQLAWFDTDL
UniProt P45974: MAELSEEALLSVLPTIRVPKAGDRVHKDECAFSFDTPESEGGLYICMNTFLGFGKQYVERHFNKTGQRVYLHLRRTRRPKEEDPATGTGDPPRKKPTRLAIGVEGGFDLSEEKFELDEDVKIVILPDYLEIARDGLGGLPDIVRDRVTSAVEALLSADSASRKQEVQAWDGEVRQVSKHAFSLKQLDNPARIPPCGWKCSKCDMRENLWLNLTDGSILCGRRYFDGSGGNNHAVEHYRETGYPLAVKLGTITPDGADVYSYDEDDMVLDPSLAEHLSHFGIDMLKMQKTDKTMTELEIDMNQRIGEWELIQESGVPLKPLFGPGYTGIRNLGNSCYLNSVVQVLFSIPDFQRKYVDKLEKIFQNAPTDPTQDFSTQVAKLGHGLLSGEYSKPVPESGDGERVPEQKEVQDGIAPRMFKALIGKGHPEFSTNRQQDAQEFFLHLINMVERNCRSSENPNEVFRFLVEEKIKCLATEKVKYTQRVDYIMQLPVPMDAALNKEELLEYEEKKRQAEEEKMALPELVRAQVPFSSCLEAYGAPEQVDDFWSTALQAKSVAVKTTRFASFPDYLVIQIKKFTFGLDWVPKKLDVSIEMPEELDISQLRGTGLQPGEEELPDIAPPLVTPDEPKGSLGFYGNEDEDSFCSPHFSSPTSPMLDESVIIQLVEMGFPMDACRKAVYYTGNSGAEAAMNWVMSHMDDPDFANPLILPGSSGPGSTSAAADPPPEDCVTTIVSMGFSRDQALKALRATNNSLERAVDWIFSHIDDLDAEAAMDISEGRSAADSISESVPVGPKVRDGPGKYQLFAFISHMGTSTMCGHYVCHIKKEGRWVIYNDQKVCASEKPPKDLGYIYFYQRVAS

Target: FLAG-DEPDC1B (DEP domain-containing protein 1B), expressed in MDA-MB-157 cells (human) (UniProt Q8WUY9)
Assay: co-IP; MDA-MB-157 cells transfected with the tagged plasmids; antibodies against MYC, FLAG, HA or IgG (25 μg/mL); whole cell lysate rotated 1 h at room temperature, washed twice; Western blot

| Substance | binding |
| --- | --- |
| HA-β-catenin, expressed in MDA-MB-157 cells (from UniProt P35222 1-781) | binds |
| MYC-USP5 (ubiquitin-specific protease 5), expressed in MDA-MB-157 cells (from UniProt P45974 1-858) (enzyme) | binds |
